Earlier results as cited in patent US5668182A, “Method of calming or sedating an animal with a hydroxy benzaldehyde compound” (priority 1996, dated 1997).

Tested on: rats
Conditions: cited from earlier work

CN1C(=O)CN=C(c2ccccc2)c2cc(Cl)ccc21 [diazepam, reference compound]
oral LD50: 1240 mg/kg
